The list shows a part of the results. This data set is noisy: repeats of one test often differ as much as different tests do.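 Free-swimming zebrafish larvae were scored for O-bend response probability to dark flashes (naive: first five; training: remaining flashes of four 60-flash blocks; test: later 60-flash block) and for turning toward alternating leftward/rightward LED motion (OMR). Six treated larvae were compared with sixty 0.1% DMSO controls; |SSMD|≥2 defined a hit.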
Experiments:
Conditions in all cases: 10 µM; pre-incubation: 30-90 min
[1] = test system: Danio rerio larvae (5 dpf, TLF); test: OMR-Perf (SSMD vs DMSO vehicle); higher = higher than vehicle (e.g. higher dark-flash O-bend response probability, or better optomotor performance)
[2] = test system: Danio rerio larvae (5 dpf, TLF); test: Prob-Test (SSMD vs DMSO vehicle); higher = higher than vehicle (e.g. higher dark-flash O-bend response probability, or better optomotor performance)
[3] = test system: Danio rerio larvae (5 dpf, TLF); test: Prob-Naive (SSMD vs DMSO vehicle); higher = higher than vehicle (e.g. higher dark-flash O-bend response probability, or better optomotor performance)
[4] = test system: Danio rerio larvae (5 dpf, TLF); test: Prob-Train (SSMD vs DMSO vehicle); higher = higher than vehicle (e.g. higher dark-flash O-bend response probability, or better optomotor performance)

## CC(=O)[N-]S(=O)(=O)c1ccc(N)cc1.[Na+] [Sulfacetamide Sodium]
[1]
  OMR-Perf: -0.344
[2]
  Prob-Test: 0.3
[3]
  Prob-Naive: 0.232
[4]
  Prob-Train: -0.00636

## Cc1ccc(C(=O)c2ccc(CC(=O)O)n2C)cc1.O.O.[Na+] [Tolmetin Sodium]
[1]
  OMR-Perf: -0.612
[2]
  Prob-Test: -0.349
[3]
  Prob-Naive: 0.0912
[4]
  Prob-Train: -0.0335

## CC(C)Oc1ccc2c(=O)c(-c3ccccc3)coc2c1 [Ipriflavone (Osteofix)]
[1]
  OMR-Perf: -0.172
[2]
  Prob-Test: -1.94
[3]
  Prob-Naive: -0.666
[4]
  Prob-Train: -2.03

## CC(C)c1cnn2c(NCc3ccccc3)cc(NCCCCCCN)nc12.Cl
[1]
  OMR-Perf: 0.399
[2]
  Prob-Test: -0.272
[3]
  Prob-Naive: -0.43
[4]
  Prob-Train: -0.746

## COc1cc2c(cc1O)CC[C@@H]1[C@H]2CC[C@]2(C)[C@H](O)CC[C@@H]12 [2-Methoxyestradiol (2-MeOE2)]
[1]
  OMR-Perf: -0.0662
[2]
  Prob-Test: 0.144
[3]
  Prob-Naive: 0.0292
[4]
  Prob-Train: -0.176

## CC1(C)O[C@@H]2C[C@H]3[C@@H]4C[C@H](F)C5=CC(=O)C=C[C@]5(C)[C@]4(F)[C@H](O)C[C@]3(C)[C@@]2(C(=O)CO)O1 [Fluocinolone Acetonide]
[1]
  OMR-Perf: -0.596
[2]
  Prob-Test: 0.436
[3]
  Prob-Naive: -0.189
[4]
  Prob-Train: -0.0911

## OC[C@@H](O)[C@@H](O)[C@H](O)[C@@H](O)CO [Sorbitol]
[1]
  OMR-Perf: 0.156
[2]
  Prob-Test: 0.115
[3]
  Prob-Naive: -0.351
[4]
  Prob-Train: 0.512

## Nc1cc(F)ccc1NC(=O)/C=C/c1cnn(C/C=C/c2ccccc2)c1
[1]
  OMR-Perf: 0.748
[2]
  Prob-Test: 0.083
[3]
  Prob-Naive: -0.471
[4]
  Prob-Train: -0.36

## CN1CCN(C2CCN(C(=O)Nc3cc(Oc4ccc(NC(=O)C5(C(=O)Nc6ccc(F)cc6)CC5)c(F)c4)ccn3)CC2)CC1 [Golvatinib (E7050)]
[1]
  OMR-Perf: 0.121
[2]
  Prob-Test: 0.0399
[3]
  Prob-Naive: 0.319
[4]
  Prob-Train: 0.12

— the supplement of paper PMC10727501
